Measurements taken from publication PMC5723433, “Identification and characterization of a novel zebrafish (Danio rerio) pentraxin–carbonic anhydrase” (PeerJ, 2017).

Amino acid sequences for entries named in this document (tags omitted). Residues count along the entry.
UniProt E9QB97, 20-530: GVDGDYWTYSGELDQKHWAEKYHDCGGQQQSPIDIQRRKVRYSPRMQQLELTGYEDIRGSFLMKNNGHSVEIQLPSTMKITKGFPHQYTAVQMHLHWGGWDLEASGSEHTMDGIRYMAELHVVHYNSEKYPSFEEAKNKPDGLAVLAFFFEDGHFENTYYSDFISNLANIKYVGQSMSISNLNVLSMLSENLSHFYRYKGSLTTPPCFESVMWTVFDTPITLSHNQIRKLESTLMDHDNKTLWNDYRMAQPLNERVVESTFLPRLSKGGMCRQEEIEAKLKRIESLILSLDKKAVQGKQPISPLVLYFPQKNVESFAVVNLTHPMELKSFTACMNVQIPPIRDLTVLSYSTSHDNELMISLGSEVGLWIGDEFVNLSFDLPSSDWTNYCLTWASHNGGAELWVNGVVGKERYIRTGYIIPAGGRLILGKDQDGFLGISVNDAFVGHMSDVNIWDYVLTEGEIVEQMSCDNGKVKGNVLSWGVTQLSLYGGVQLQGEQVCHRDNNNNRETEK

Biological target: T1, CA VI–PTX (Pentraxin-CA VI) (Danio rerio, UniProt E9QB97)
T1 construct: gene ca6
Experiment: biochemical

Ki: 5 nM
SMILES: CC(=O)Nc1nnc(S(N)(=O)=O)s1 [AAZ, 5-acetamido-1,3,4-thiadiazole-2-sulfonamide]
